Measurements as given in patent US20140044738A1 (AstraZeneca / MedImmune, published 2014).
These are yes or no findings as the source states them, for the method shown. Some results given as binding are weak or reduced against the parent protein; the word gives no strength. Tags and fused reporters may be left off the sequences shown.

Chains of the proteins cited; added tags and fusions are not shown. Residues count along the entry.
UniProt Q15116, residues 25-167: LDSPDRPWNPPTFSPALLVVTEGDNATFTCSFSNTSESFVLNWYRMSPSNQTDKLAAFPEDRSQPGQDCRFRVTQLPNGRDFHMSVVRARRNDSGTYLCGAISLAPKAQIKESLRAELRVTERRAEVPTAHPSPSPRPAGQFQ

Target: human PD-1 (form in the assay not stated) (human) (UniProt Q15116)
Test: flow cytometry histogram, axis PE-A: SA; cells not named on the sheet or in the text

B1: 1H3 Construct (chimeric murine anti-human PD-1 Fab regions of antibody 1H3 and a human IgG1 Fc region) (antibody, V domains shown)
VH: EVQLVESGGGLVKPGGSLKLSCAASGFTFSDYGMHWVRQAPEKGLEWVAYISSGSYTIYYTDTVKGRFTISRDNAKNTLFLQMTSLRSEDTAMYYCARRGYGSFYEYYFDYWGQGTTLTVSS
VL: QIVLTQSPALMSASPGEKVTMTCSASSSVSYMYWYQQKPRSSPKPWIYLTSNLASGVPARFSGSGSGTSYSLTISSMEAEDAATYYCQQWSSNPFTFGSGTKLEIK
notes: also called 1H3 anti-human PD-1 chimeric antibody; chimeric 1H3
- binding: binds
